Laboratory results published in PMC11240389.
No constants are given. Whether binding was seen depends on the method and setting. Binding seen in cells or lysates may run through a third protein. Some binding calls cover weakened binding; strength is not graded here.

Protein sequences, listed by entry. Tags and fused reporters are not part of them. Residues count along the entry.
UniProt Q07954, residues 20-4544: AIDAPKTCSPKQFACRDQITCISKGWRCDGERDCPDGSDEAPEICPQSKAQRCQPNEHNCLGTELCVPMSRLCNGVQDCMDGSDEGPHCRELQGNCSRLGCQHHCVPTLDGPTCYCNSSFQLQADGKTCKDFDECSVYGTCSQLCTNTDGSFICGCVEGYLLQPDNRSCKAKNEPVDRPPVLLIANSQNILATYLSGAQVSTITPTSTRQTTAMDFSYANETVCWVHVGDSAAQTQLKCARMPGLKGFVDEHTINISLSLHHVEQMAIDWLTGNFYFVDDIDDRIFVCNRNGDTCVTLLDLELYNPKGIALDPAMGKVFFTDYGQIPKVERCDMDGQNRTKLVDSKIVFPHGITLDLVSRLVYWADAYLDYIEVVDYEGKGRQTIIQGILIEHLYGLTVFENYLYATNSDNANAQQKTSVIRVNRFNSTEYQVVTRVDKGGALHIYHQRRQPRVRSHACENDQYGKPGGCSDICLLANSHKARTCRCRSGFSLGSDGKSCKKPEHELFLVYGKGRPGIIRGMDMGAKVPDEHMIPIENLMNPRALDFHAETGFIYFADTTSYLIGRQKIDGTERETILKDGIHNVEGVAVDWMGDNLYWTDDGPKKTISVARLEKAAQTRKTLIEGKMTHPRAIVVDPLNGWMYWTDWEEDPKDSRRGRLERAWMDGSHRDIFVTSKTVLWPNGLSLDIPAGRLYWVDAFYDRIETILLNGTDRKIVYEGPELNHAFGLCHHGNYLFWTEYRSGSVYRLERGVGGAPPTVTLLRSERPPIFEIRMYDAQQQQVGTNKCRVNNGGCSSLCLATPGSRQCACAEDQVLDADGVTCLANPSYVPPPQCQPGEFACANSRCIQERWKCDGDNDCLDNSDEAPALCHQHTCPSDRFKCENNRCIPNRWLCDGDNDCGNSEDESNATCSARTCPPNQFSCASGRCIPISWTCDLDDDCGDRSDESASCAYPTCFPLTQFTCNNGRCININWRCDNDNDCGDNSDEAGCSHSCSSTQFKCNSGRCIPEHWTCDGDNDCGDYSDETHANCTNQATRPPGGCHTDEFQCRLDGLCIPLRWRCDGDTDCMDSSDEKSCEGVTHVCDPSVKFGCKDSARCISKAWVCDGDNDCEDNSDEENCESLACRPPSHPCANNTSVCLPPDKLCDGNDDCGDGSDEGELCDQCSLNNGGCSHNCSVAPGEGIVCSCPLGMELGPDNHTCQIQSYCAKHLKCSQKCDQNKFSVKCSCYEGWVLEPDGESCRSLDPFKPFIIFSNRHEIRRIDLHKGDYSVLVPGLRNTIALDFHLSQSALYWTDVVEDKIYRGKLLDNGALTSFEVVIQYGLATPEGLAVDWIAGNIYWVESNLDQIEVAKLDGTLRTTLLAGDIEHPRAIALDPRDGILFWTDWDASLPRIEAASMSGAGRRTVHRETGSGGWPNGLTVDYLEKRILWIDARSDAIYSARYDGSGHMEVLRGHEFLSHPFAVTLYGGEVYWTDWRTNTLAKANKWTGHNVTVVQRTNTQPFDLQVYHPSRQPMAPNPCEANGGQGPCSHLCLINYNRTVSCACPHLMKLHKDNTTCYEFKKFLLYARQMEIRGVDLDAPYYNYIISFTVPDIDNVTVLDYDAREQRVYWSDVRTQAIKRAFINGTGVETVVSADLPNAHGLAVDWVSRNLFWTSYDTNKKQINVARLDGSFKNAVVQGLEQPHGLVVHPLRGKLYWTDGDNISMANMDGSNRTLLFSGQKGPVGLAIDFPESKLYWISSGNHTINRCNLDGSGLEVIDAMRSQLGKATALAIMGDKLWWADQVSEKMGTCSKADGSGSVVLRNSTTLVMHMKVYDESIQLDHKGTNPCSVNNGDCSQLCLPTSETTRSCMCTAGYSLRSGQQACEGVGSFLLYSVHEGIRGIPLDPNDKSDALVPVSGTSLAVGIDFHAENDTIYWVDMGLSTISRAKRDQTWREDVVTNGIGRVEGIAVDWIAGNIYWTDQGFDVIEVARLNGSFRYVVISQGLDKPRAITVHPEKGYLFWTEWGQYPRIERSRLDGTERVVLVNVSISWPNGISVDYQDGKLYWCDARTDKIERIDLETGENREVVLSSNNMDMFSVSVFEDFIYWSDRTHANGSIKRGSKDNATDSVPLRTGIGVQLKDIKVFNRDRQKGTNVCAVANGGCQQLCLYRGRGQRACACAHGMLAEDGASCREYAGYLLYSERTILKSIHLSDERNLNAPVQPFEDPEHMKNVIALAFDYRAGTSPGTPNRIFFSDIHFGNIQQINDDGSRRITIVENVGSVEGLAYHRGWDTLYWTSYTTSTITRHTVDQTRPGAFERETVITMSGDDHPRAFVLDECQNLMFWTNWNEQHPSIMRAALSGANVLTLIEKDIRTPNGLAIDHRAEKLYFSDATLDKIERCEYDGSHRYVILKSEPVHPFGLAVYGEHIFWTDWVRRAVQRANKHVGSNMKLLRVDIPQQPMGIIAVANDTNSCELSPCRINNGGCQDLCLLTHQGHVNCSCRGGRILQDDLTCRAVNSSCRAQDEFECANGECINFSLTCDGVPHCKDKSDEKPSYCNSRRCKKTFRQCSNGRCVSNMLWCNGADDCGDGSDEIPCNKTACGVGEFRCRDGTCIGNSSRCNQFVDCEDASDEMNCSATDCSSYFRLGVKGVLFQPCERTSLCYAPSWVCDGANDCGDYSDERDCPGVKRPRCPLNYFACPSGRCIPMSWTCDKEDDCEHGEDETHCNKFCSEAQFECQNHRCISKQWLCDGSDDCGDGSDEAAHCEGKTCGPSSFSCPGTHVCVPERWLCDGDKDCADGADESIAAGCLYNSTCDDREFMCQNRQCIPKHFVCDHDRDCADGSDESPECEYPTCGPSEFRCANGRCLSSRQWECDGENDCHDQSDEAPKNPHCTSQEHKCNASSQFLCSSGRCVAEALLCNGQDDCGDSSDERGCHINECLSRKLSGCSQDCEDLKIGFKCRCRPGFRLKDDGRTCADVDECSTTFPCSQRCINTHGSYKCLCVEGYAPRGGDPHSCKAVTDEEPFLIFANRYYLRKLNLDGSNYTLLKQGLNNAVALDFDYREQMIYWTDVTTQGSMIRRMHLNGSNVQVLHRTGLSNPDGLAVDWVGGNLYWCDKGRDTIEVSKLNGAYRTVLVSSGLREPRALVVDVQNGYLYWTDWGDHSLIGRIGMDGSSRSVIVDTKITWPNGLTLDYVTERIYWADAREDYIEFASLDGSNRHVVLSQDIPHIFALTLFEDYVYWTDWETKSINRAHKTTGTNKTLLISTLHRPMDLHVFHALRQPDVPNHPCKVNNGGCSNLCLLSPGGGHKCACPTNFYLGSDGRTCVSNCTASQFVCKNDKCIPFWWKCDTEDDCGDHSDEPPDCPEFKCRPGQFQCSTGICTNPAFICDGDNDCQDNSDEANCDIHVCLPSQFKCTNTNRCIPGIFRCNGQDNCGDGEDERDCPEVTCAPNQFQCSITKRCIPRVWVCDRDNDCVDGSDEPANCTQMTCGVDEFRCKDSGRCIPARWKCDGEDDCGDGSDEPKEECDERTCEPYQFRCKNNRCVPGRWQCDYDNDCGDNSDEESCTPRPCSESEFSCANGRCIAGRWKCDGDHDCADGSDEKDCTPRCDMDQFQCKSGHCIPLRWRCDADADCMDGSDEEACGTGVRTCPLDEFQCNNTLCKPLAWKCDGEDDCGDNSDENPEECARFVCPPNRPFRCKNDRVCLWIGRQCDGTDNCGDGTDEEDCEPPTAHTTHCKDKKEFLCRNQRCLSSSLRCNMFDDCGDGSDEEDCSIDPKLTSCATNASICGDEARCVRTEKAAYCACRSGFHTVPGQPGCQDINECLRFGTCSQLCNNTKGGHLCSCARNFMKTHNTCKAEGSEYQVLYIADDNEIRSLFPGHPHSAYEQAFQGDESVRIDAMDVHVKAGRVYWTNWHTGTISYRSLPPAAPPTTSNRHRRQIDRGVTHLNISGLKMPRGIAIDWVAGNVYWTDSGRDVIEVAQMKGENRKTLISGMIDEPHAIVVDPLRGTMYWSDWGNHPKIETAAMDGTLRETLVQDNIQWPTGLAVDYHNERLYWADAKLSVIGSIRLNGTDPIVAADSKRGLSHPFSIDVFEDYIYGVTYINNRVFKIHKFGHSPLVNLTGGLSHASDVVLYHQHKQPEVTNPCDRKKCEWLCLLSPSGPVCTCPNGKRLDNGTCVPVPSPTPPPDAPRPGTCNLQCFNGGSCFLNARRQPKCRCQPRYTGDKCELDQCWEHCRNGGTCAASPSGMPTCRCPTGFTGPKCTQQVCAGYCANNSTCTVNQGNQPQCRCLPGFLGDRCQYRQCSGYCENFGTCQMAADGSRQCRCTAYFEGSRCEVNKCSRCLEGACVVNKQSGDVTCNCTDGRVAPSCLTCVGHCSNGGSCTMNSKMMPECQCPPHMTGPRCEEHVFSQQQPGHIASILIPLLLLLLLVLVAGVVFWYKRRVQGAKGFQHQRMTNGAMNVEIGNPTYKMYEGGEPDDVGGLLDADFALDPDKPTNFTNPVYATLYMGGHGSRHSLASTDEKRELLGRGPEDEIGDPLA

Target: cell-surface receptor CD91 (human (endogenous in PANC-1)) (UniProt Q07954)
Experiment: proximity ligation; PANC-1 cells in 0.5% serum medium treated 24 h with PBS or 15 μg/mL rHSP90α, without or with 10 μg/mL control IgG, Clone-2 or Clone-6 antibody; fixed with 3% paraformaldehyde; anti-CD91 plus anti-HSP90α antibodies, Duolink in situ PLA kit; only the binder purified

recombinant 732-a.a. full-length human HSP90α (from UniProt P07900 1-732)
binding: binds
